No constants are given. Whether binding was seen depends on the method and setting. Some results given as binding are weak or reduced against the parent protein; the word gives no strength.
How the values were obtained:
[1] = target: recombinant human mesothelin (MSLN) (human) (UniProt Q13421); experiment: SPR (Biacore), Fab culture supernatant diluted 1/10 over human MSLN fixed on a CM5 chip, Example 3-7
[2] = target: recombinant human mesothelin (MSLN) (human) (UniProt Q13421); experiment: ELISA, Fab supernatant on MSLN-coated plate

Sequences of proteins named here, by UniProt entry; tags and fusion partners are left off. A change or cut given only in a name is not applied to a line headed by its entry.
UniProt Q13421: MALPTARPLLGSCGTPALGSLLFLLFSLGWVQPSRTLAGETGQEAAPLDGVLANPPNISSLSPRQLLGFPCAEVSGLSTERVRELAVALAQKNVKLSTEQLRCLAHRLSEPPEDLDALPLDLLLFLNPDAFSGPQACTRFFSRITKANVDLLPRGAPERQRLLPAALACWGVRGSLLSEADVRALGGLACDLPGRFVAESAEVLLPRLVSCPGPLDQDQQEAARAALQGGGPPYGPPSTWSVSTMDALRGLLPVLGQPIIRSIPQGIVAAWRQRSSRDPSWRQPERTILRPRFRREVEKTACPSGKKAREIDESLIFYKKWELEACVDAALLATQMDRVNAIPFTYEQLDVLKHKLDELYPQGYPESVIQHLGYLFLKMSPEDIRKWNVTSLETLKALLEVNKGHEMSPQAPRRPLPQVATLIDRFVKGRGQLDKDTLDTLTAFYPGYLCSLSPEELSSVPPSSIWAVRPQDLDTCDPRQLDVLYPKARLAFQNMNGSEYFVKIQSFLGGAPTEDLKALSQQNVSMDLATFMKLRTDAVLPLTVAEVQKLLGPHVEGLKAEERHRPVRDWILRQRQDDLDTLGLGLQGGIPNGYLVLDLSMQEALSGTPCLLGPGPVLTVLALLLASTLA

B1: clone 2-73 (MS502 heavy chain variable region mutation antibody) (antibody, V domains shown)
VH: EVQLLESGGGLVQPGGSLRLSCAASGFTFSNYAMSWVRQAPGKGLEWVSGIPPNSDSKYYADSVRGRFTVSRDNSKNTLYLQMNSLRAEDTAVYYCAKNMLSFDYWGQGTLVTVSS
VL: QSVLTQPPSASGTPGQRVTISCTGSSSNIGSNAVSWYQQLPGTAPKLLIYYNSKRPSGVPDRFSGSKSGTSASLAISGLRSEDEADYYCGSWDSSLNGYVFGGGTKVTVLG
B1 was tested, and the binding [1] was “binds” and the binding [2] was “binds”.
